# Source: PubChem BioAssay AID662 (National Center for Advancing Translational Sciences (NCATS), 2007)
# Some of the results follow. These are further read-outs of the screen, such as a control signal, another cell line or another target. No call is given for them. Compounds called inactive in the main read-out are mostly missing here. Words in brackets tell the shape of the fitted curve; partial curves, single points and poor fits give uncertain potencies.
# Test: Cell signaling CRE-BLA (Fsk stim)
# Conditions: CHO CRE-bla reporter (cAMP response element driving beta-lactamase), forskolin EC10, beta-lactamase ratio; measured here: 460 nm blue channel
# Summary of the method: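 Cells were plated overnight at 37 °C, exposed to compound titrations plus EC10 NKH 477 for 3 h, then given CCF4 dye for 2 h at room temperature. Blue/green (460/530 nm) ratio was converted to %Activity and AC50 values calculated.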
row,SMILES,AC50
1,CCOC(=O)c1c(C)n(Cc2ccccc2)c2ccc(OCC(O)CN3C(=O)CNC3=O)cc12 (stereo unspecified),"12.6 µM [rising, partial curve]"
2,CCCCCCN=C(CC)c1c(O)n(CCCC)c(=O)[nH]c1=O,"7.94 µM [rising, partial curve]"
3,CCOC(=O)c1cn2nc(OP(=S)(OCC)OCC)cc2nc1C,"10 µM [rising, single point]"
4,C=C1[C@@H]2CC[C@H]3[C@@]4(C)C[C@@H](O[C@@H]5O[C@H](CO)[C@H](OS(=O)(=O)O)[C@@H](OS(=O)(=O)O)[C@@H]5OC(=O)CC(C)C)C[C@@H](C(=O)O)[C@H]4CC[C@@]3(C2)[C@H]1O,"5.01 µM [rising, single point]"
5,CN1Cc2ccccc2[C@@H]2c3cccc4[nH]cc(c34)C[C@H]21,"12.6 µM [rising, full curve]"
6,N[C@@]1(C(=O)O)CC[C@H](C(=O)O)C1,"10 µM [falling, full curve]"
7,C[C@H]1C[C@H](C)C(=O)[C@@H]([C@H](O)CC2CC(=O)NC(=O)C2)C1,"15.8 µM [falling, partial curve, poor fit]"
8,C[N+]1=Cc2cc3c(cc2CC1)OCO3,"20 µM [rising, partial curve]"
9,C=CCN1C[C@H](C)N([C@H](c2ccc(C(=O)N(CC)CC)cc2)c2cccc(O)c2)C[C@H]1C,"31.6 µM [falling, single point]"
10,CC(=O)Nc1ccccc1OC(=O)N(C)C,"25.1 µM [falling, single point]"
11,Cc1cccnc1NC1=NCC(C)S1 (stereo unspecified),"0.00501 µM [falling, full curve, poor fit]"
12,CCCCn1c(NC(=O)c2ccco2)c(C(=O)OCC)c2nc3ccccc3nc21,"12.6 µM [rising, partial curve]"
13,COc1ccc2c(c1)CC1(CN2C)C(=O)NC(=O)N(CCc2ccccc2)C1=O (stereo unspecified),"3.98 µM [rising, single point]"
14,Fc1ccccc1N1CCN(Cc2ccc3c(c2)OCO3)CC1,"1 µM [falling, full curve]"
15,O=C(c1cc(-c2cccnc2)nc2ccccc12)N1CCC2(CC1)OCCO2,"25.1 µM [rising, single point]"
16,O=C(COc1ccccc1)N1CCN(CC2CC3C=CC2C3)CC1 (stereo unspecified),"0.126 µM [falling, single point]"
17,CCN(CC)CCO[C@H]1CC[C@@]2(C)C(=CC[C@@H]3[C@H]2CC[C@]2(C)C(=O)CC[C@H]32)C1,"7.94 µM [falling, partial curve, poor fit]"
18,CC1CN(O)C2CCc3nonc3C12O (stereo unspecified),"1.58 µM [falling, partial curve, poor fit]"
19,Cc1ccc(Cn2nnnc2CN2CCC(n3nnc4cc(C(F)(F)F)ccc43)CC2)cc1,"10 µM [rising, partial curve]"
20,CCCCn1c(O)c(C(C)=NC(C)c2ccccc2)c(=O)[nH]c1=O (stereo unspecified),"12.6 µM [rising, single point]"
21,Cn1cc(C(=O)N2CCC3(CC2)OCCO3)c2c3ccccc3n(C)c2c1=O,"20 µM [rising, single point]"

row,SMILES,AC50
1,ClC1=C(Cl)C2(Cl)C3C(Cl)C(Cl)CC3C1(Cl)C2(Cl)Cl (stereo unspecified),"0.794 µM [rising, full curve]"
2,CC1CN=C(Nc2cccc3ccccc23)S1 (stereo unspecified),"0.1 µM [falling, partial curve]"
3,C/C(O)=C(/C#N)C(=O)Nc1cc(Br)ccc1Br,"10 µM [falling, partial curve, poor fit]"
4,O=C(Oc1ccccc1)N1CCC[C@@]2(CCN(Cc3cc(C(F)(F)F)cc(C(F)(F)F)c3)C2)C1,"10 µM [rising, partial curve]"
5,N#CC1=C(N)Oc2c(c(=O)oc3ccccc23)C1c1ccc(OC(=O)N2CCOCC2)cc1 (stereo unspecified),"5.01 µM [rising, partial curve]"
6,CCC(C)NC(=O)c1c(N)n(Cc2ccc3c(c2)OCO3)c2nc3ccccc3nc12 (stereo unspecified),"10 µM [rising, partial curve]"
7,CC(C)OCCCNC(=O)c1c(N)n(CC2CCCO2)c2nc3ccccc3nc12 (stereo unspecified),"12.6 µM [rising, partial curve]"
8,CCCC1(CCC)C(=O)NC(=NCc2ccccc2)NC1=O,"25.1 µM [falling, single point]"
9,C=CCn1c(O)c(C(CC)=NCc2cc(OC)cc(OC)c2)c(=O)[nH]c1=O,"5.01 µM [rising, partial curve]"
10,CC1=NCCc2c1[nH]c1cc(O)ccc21,"10 µM [rising, partial curve]"
11,COC(=O)C(O)(c1cn(C)c2ccccc12)C(F)(F)F (stereo unspecified),"15.8 µM [falling, partial curve, poor fit]"
12,CN(C(=O)Cc1ccc(Cl)c(Cl)c1)[C@H](CN1CCCC1)c1ccccc1,"7.94 µM [rising, partial curve, poor fit]"
13,CCCN(CCC)[C@@H]1CCc2ccc(O)cc2C1,"0.1 µM [rising, full curve, poor fit]"
14,CCCCn1c(O)c(C(CC)=NCc2ccc3c(c2)OCO3)c(=O)[nH]c1=O,"3.16 µM [rising, partial curve]"
15,COc1ccc(-c2nc(CS(=O)CC(=O)N3CCC4(CC3)OCCO4)c(C)o2)cc1 (stereo unspecified),"0.02 µM [falling, full curve]"
16,O=C(CCCCCn1c(=S)[nH]c2ccccc2c1=O)N1CCC2(CC1)OCCO2,"0.1 µM [rising, full curve]"
17,O=C(Cn1ncc2c3ccccc3n(Cc3cccc(Cl)c3)c2c1=O)N1CCC2(CC1)OCCO2,"0.1 µM [falling, partial curve]"
18,O=C1CC(N2CC=C(c3ccccc3)CC2)C(=O)N1c1ccc(F)cc1 (stereo unspecified),"12.6 µM [falling, single point]"
19,CC1CN=C(NCc2ccncc2)S1 (stereo unspecified),"5.01 µM [falling, single point]"
20,CCOC(=O)c1ccc(NC(=O)C2C3C=CC(O3)C2C(=O)O)cc1 (stereo unspecified),"0.316 µM [rising, partial curve]"

# Some of the entries so far, with tabs.
row	SMILES	AC50
15	O=C(c1cc(-c2cccnc2)nc2ccccc12)N1CCC2(CC1)OCCO2	25.1 µM [rising, single point]
11	COC(=O)C(O)(c1cn(C)c2ccccc12)C(F)(F)F (stereo unspecified)	15.8 µM [falling, partial curve, poor fit]
16	O=C(CCCCCn1c(=S)[nH]c2ccccc2c1=O)N1CCC2(CC1)OCCO2	0.1 µM [rising, full curve]
